Reference: US20100144636A1, “PEPTIDES DERIVED FROM RAS-P21 AND USES THEREFOR” (THE RESEARCH FOUNDATION OF STATE UNIVERSITY OF NEW YORK, priority 2008, published 2010)
Not every detail of the peptide structures is certain; ends, links or a residue may be inferred. Where no end group is shown, it is not given here.

Tests used:
[1] = tested on: HT-1080 fibrosarcoma cells; test: Growth (cell counts) of HT-1080 cells incubated with peptide; assay type: cell-based, human; settings: peptide 100 μg/ml, medium changed every 48 h; three-week observation period (FIG. 1)
Protocol: MIAPaCa-2 cells were grown in Dulbecco's modified Eagle's medium (GIBCO) supplemented with heat inactivated 10% fetal calf serum, 20 mM glutamine, penicillin (100 units/ml), streptomycin (100/ug/ml) and plated on a six-well plate with density no more then 20,000 cells/well in 3 ml culture medium. HT1080 cells were cultured in RPMI 1640 medium supplemented with 10% heat-inactivated fetal calf serum, 100 units/ml of penicillin and 100 ug/ml streptomycin and plated on six-well plates with a density of no more then 6,000 cells/well in 3 ml culture medium. BMRPA1 normal rat pancreatic acinar cells were grown as described previously.
All cells (approximately 2×10^4) were incubated in their respective media (see above) for 24 h after which the media were replaced with the same media containing one of the peptides at a concentration of 100 μg/ml. Over the subsequent time course of each experiment, the medium was changed every 48 h, but always contained peptide at the same concentration. Cells were observed daily for 1-3 weeks for changes in morphology and growth characteristics. After selected time periods, cells were stained with trypan blue or assayed using the MTT assay as described previously to assess cell counts. These experiments were performed at least three times for each cell line.

HT-1080 cells = test: Growth of peptide-treated HT-1080 cells in soft agar (colony counts); assay type: cell-based, human; settings: 1×10^4 cells plated after peptide treatment, 2 weeks at 37° C. (FIG. 2)
[2] = tested on: MIA-PaCa-2 pancreatic cancer cells; test: Growth and viability (cell counts) of MIA-PaCa-2 cells incubated with peptide; assay type: cell-based, human
[3] = tested on: caspase (CPP32) in MIA-PaCa-2 cells; test: Clontech caspase (CPP32) activity assay for apoptosis; assay type: cell-based, human; settings: relative to control background; TNF-alpha 20 ng/ml for 45 min as positive control (FIG. 4A)
Protocol: To detect if peptide-induced cell death occurred by apoptosis or necrosis, the Clontech caspase (CPP32) activity assay for elevated caspase was performed as described previously. In addition, to detect if significant cell necrosis occurred, the CytoTox96 assay for LDH released into the cell culture medium was used as also described previously. As a positive control for LDH release, the CytoTox96 assay was performed on the media of MIA-PaCa-2 cells that were incubated with 100 ug/ml PNC-28 peptide for 24 h.

MIA-PaCa-2 cells = test: CytoTox96 assay for LDH released into the culture medium (necrosis); assay type: cell-based, human; settings: FIG. 4B; control compared with target-peptide-treated cells
JNK in MIA-PaCa-2 cells = test: Immunoblots for total and phosphorylated JNK, MIA-PaCa-2; assay type: cell-based, human; settings: MIA-PaCa-2 cells treated for 48 h
[4] = tested on: U-251 human astrocytoma cells; test: Killing of U-251 astrocytoma cells (overexpressed wild-type ras-p21); assay type: cell-based; settings: 1×10^6 cells, within 1 week, 125 ug/ml
[5] = tested on: TUC-3 rat pancreatic cancer cells; test: Phenotypic reversion of ras-transformed TUC-3 cells; assay type: cell-based; settings: 2 weeks of treatment/incubation with peptide-MRP
[6] = tested on: TUC-3 rat pancreatic cancer cells; test: Growth of peptide-treated TUC-3 cells in nude mice; assay type: in vivo; settings: cells treated 2 weeks with peptide; compared with untreated TUC-3 cells

For “YREQIKRVKDSDDVPKKWKMRRNQFVKVQRG [PNC-2-MRP]”, the “tumor cell growth / cell count of HT-1080 cells” value [1] was “dramatic decrease in cell count after 1 week”, the “colony formation of treated HT-1080 cells in soft agar” value (HT-1080 cells) was “did not form any colonies” and the “cell count of MIA-PaCa-2 cells after 10 days” value ([2]; after 10 days (FIG. 3)) was 0. The “tumor cell growth of MIA-PaCa-2 cells” value ([2]; peptide 100 μg/ml (FIG. 3)) was “total inhibition of tumor cell growth”, the “viable MIA-PaCa-2 cells after 2 weeks of treatment” value ([2]; peptide 100 μg/ml, 2 weeks) was “no viable cells remained” and the “caspase expression in MIA-PaCa-2 cells” value [3] was “not elevated above control background levels”. For the same sequence, the “LDH activity released into the culture medium of MIA-PaCa-2 cells” value (MIA-PaCa-2 cells) was “LDH is released”, the “expression of total JNK” value (JNK in MIA-PaCa-2 cells; versus untreated cells (FIG. 5A)) was “remained the same as in untreated cells” and the “level of phosphorylated JNK” value (JNK in MIA-PaCa-2 cells; versus untreated cells (FIG. 5B)) was “markedly diminished”. The “killing of U-251 cells” value [4] was “kill all of these cells”, the “phenotype of TUC-3 cells after peptide treatment” value [5] was “adopt the wild-type phenotype” and the “growth of treated TUC-3 cells in nude mice” value [6] was “failed to grow in nude mice”.
